Laboratory results taken from PubChem BioAssay (EPA / NIEHS).
The shares of active, inactive and inconclusive entries below differ from those in the screen. Potencies beside an inconclusive call are fits to weak or partial responses and may not hold up. Calls of active or inactive are those of the source. Rule for the calls: active = hit-call score of the fitted dose curve at least 0.9, where 1 is the maximum; inconclusive = response in the unintended direction; inactive = score below 0.9.

Protein sequences, listed by entry. Tags and fused reporters are not part of them. Lines headed by an entry give the natural chain unless they say otherwise; changes in a name come on top.
UniProt Q9UNQ0: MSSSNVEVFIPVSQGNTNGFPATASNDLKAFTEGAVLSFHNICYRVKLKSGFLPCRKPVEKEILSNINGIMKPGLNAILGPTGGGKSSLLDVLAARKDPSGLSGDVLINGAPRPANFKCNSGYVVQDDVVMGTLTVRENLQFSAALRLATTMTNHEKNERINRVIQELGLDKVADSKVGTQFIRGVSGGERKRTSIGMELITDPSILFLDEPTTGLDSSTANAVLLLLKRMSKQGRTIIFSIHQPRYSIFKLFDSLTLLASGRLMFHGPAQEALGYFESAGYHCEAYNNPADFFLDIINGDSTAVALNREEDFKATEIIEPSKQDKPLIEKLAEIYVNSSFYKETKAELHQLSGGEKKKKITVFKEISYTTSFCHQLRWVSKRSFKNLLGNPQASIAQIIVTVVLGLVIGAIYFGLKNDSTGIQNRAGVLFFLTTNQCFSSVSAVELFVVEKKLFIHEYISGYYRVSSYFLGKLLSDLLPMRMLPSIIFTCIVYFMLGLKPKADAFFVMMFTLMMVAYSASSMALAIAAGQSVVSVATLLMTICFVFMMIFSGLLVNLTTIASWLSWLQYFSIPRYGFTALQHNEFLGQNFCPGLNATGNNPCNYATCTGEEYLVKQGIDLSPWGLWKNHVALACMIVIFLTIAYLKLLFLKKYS
UniProt P11712, whole entry, looked up: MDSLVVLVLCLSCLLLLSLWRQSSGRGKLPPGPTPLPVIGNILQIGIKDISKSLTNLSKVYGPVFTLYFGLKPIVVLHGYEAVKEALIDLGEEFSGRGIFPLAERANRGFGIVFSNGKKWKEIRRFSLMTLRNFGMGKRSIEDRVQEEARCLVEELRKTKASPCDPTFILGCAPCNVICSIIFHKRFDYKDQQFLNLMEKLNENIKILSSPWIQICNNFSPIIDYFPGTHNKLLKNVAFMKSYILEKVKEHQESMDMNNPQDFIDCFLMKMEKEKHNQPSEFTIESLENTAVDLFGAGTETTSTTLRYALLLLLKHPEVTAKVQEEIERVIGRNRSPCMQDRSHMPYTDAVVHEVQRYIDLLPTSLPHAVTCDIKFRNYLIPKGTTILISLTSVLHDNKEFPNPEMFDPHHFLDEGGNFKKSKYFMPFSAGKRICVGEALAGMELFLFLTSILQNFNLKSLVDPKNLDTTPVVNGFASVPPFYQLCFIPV
UniProt P04406: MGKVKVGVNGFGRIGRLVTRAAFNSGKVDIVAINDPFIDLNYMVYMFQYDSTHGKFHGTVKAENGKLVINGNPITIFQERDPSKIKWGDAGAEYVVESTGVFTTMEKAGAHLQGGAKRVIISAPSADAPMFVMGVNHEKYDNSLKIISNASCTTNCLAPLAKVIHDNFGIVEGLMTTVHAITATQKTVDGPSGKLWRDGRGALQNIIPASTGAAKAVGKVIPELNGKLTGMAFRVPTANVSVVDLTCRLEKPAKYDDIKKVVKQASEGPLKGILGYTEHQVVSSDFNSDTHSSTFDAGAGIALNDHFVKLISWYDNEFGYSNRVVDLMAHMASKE
UniProt P20813: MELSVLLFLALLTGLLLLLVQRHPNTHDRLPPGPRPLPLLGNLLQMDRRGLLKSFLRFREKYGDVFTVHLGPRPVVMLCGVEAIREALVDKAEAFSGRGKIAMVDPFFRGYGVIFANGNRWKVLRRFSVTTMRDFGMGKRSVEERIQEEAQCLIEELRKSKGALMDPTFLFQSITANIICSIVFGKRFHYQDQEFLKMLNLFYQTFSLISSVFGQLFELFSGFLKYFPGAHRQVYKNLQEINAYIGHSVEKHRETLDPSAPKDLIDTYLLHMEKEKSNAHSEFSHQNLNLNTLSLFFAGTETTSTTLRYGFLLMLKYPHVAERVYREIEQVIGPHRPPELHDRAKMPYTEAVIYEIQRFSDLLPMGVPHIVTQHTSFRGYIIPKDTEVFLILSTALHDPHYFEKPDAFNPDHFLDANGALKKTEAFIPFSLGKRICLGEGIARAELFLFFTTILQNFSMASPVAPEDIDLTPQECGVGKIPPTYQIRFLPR
UniProt P33261, whole entry, looked up: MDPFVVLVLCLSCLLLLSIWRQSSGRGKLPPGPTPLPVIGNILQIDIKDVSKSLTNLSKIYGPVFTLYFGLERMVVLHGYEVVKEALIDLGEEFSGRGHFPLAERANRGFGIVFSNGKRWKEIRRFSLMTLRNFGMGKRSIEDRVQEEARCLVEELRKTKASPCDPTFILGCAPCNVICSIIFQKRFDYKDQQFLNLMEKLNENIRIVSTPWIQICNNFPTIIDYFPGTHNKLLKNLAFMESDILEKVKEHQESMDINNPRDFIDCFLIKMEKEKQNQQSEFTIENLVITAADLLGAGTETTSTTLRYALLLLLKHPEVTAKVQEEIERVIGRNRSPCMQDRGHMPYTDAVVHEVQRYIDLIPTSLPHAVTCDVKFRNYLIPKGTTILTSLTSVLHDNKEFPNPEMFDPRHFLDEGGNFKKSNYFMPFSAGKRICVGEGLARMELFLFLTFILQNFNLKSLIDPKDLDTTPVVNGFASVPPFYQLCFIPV
UniProt P08684, whole entry, looked up: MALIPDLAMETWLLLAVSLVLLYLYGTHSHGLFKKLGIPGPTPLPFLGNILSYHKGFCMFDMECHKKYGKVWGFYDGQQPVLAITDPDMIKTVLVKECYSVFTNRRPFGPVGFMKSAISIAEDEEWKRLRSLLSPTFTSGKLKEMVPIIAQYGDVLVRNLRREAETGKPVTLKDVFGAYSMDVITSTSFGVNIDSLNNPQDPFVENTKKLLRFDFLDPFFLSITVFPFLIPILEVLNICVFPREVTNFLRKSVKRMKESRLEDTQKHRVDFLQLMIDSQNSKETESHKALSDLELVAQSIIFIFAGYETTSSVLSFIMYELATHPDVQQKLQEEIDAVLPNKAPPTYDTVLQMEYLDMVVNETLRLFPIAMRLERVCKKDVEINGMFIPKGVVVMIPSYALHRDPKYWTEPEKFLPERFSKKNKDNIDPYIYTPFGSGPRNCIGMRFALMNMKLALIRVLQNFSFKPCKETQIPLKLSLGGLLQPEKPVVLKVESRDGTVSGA

How the values were obtained:
[1] = read-out: Broad substrate specificity ATP-binding cassette transporter ABCG2 (Homo sapiens) (UniProt Q9UNQ0); assay: CLD_ABCG2_24hr: CellzDirect (CLD) Gene Expression Assay for ABC Transporter (ABCG2) at 24 hours (AID 2283685);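 for AC50: AC50 is for induction meaning signal gain over DMSO vehicle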
Procedure, shortened: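 Primary human hepatocytes were dosed daily with ToxCast chemicals at multiple concentrations (vehicle 0.2% DMSO). ABCG2 mRNA was measured at 24 h by qNPA chemiluminescence; induction was scored as gain of signal versus DMSO.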

[2] = read-out: Cytochrome P450 2C9 (Homo sapiens) (UniProt P11712); assay: CLD_CYP2C9_24hr: CellzDirect (CLD) Gene Expression Assay for xenobiotic metabolism (CYP2C9) at 24 hours (AID 2283688);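 for AC50: potency for induction meaning a rise in CYP2C9 mRNA over DMSO vehicle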
Procedure, shortened: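 Primary human hepatocytes from two donor preparations, dosed daily for two days at multiple concentrations; vehicle 0.2% DMSO. CYP2C9 mRNA induction at 24 h measured by qNPA chemiluminescence relative to DMSO; cytotoxicity annotated from morphology.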

[3] = read-out: HMG-CoA synthase (HMGCS2), HMGCS2 (gene 3158); assay: CLD_HMGCS2_24hr: CellzDirect (CLD) Gene Expression Assay for HMG-CoA synthase (HMGCS2) at 24 hours (AID 2283691)
Procedure, shortened: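 Primary human hepatocytes from two donor preparations, dosed daily with fresh solutions; vehicle 0.2% DMSO, 24 h harvest. HMGCS2 mRNA quantified by qNPA with S1 nuclease digestion and chemiluminescence; gain fitted versus DMSO, cytotoxicity annotated by morphology.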

[4] = read-out: Glyceraldehyde-3-phosphate dehydrogenase (Homo sapiens) (UniProt P04406); assay: CLD_GAPDH_24hr: CellzDirect (CLD) Gene Expression Assay for Baseline Control (Glyceraldehyde 3-phosphate dehydrogenase) at 24 hours (AID 2283692)
Procedure, shortened: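 Primary human hepatocytes (two donor preparations) dosed daily for two days, 0.2% DMSO vehicle; GAPDH mRNA measured at 24 h by qNPA chemiluminescence as a background control, gain-of-signal fitted against DMSO.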

[5] = read-out: sulfotransferase (SULT2A), SULT2A1 (gene 6822); assay: CLD_SULT2A_24hr: CellzDirect (CLD) Gene Expression Assay for sulfotransferase (SULT2A) at 24 hours (AID 2283694);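 for AC50: potency for increased SULT2A1 mRNA level as induction over DMSO baseline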
Procedure, shortened: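 Primary human hepatocytes from two donor preparations were dosed daily with fresh solutions, vehicle 0.2% DMSO. At 24 h, lysates went to quantitative nuclease protection (qNPA) with S1 digestion and chemiluminescent readout. Cytotoxicity was annotated from phase-contrast morphology.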

[6] = read-out: ABC Transporter (ABCB11), ABCB11 (gene 8647); assay: CLD_ABCB11_48hr: CellzDirect (CLD) Gene Expression Assay for ABC Transporter (ABCB11) at 48 hours (AID 2283697)
Procedure, shortened: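 Primary human hepatocytes from two donor preparations dosed daily for two days at multiple concentrations; 0.2% DMSO vehicle. ABCB11 mRNA at 48 h by quantitative nuclease protection assay, chemiluminescence; fitted for induction versus DMSO.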

[7] = read-out: Cytochrome P450 2B6 (Homo sapiens) (UniProt P20813); assay: CLD_CYP2B6_48hr: CellzDirect (CLD) Gene Expression Assay for xenobiotic metabolism (CYP2B6) at 48 hours (AID 2283699);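 note: actives raise transcript level above DMSO so potency reflects induction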
Procedure, shortened: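 Primary human hepatocytes dosed daily for two days over multiple concentrations, 0.2% DMSO vehicle; CYP2B6 mRNA quantified at 48 h by qNPA chemiluminescence. Induction fitted as gain of signal versus DMSO; cytotoxicity annotated by morphology.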

[8] = read-out: Glyceraldehyde-3-phosphate dehydrogenase (Homo sapiens) (UniProt P04406); assay: CLD_GAPDH_48hr: CellzDirect (CLD) Gene Expression Assay for Baseline Control (Glyceraldehyde 3-phosphate dehydrogenase) at 48 hours (AID 2283706)
Procedure, shortened: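 Primary human hepatocytes dosed daily for two days with fresh chemical at multiple concentrations, 0.2% DMSO vehicle; GAPDH mRNA measured at 48 h by quantitative nuclease protection assay with chemiluminescence, fitted upward relative to DMSO as background control.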

[9] = read-out: alkyl and aryl transferase (GSTA2), GSTA2 (gene 2939); assay: CLD_GSTA2_48hr: CellzDirect (CLD) Gene Expression Assay for alkyl and aryl transferase (GSTA2) at 48 hours (AID 2283708);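 note: active means mRNA induction above DMSO vehicle baseline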
Procedure, shortened: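 Primary human hepatocytes dosed daily for two days (0.2% DMSO vehicle), harvested at 48 h. GSTA2 mRNA induction measured by quantitative nuclease protection assay with chemiluminescent imaging, fitted for gain of signal relative to DMSO.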

[10] = read-out: alkyl and aryl transferase (GSTA2), GSTA2 (gene 2939); assay: CLD_GSTA2_24hr: CellzDirect (CLD) Gene Expression Assay for alkyl and aryl transferase (GSTA2) at 24 hours (AID 2283693)
Procedure, shortened: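 Primary human hepatocytes (two donor preparations) dosed daily for two days with chemicals at multiple concentrations (vehicle 0.2% DMSO); GSTA2 mRNA at 24 h measured by qNPA chemiluminescence, gain-of-signal versus DMSO.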

[11] = read-out: ABC Transporter (ABCB1), ABCB1 (gene 5243); assay: CLD_ABCB1_48hr: CellzDirect (CLD) Gene Expression Assay for ABC Transporter (ABCB1) at 48 hours (AID 2283695);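 for AC50: potency for induction meaning increase of mRNA over DMSO vehicle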
Procedure, shortened: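 Primary human hepatocytes from two donor preparations dosed daily on two consecutive days with 0.2% DMSO vehicle. Harvest at 48 h. ABCB1 mRNA quantified by qNPA with chemiluminescence and fitted for gain of signal versus DMSO.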

[12] = read-out: Cytochrome P450 2C19 (Homo sapiens) (UniProt P33261); assay: CLD_CYP2C19_48hr: CellzDirect (CLD) Gene Expression Assay for xenobiotic metabolism (CYP2C19) at 48 hours (AID 2283700)
Procedure, shortened: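 Primary human hepatocytes (two donor preparations) dosed daily for two days, harvested at 48 h; CYP2C19 mRNA induction measured by qNPA chemiluminescence. Gain-of-signal fitted relative to 0.2% DMSO vehicle as baseline.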

[13] = read-out: organic anion transporter (SLCO1B1), SLCO1B1 (gene 10599); assay: CLD_SLCO1B1_48hr: CellzDirect (CLD) Gene Expression Assay for organic anion transporter (SLCO1B1) at 48 hours (AID 2283707)
Procedure, shortened: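 Primary human hepatocytes from two donor preparations dosed daily for two days with multiple concentrations, 0.2% DMSO vehicle. SLCO1B1 mRNA at 48 h by quantitative nuclease protection assay, chemiluminescence; gain-of-signal fitted versus DMSO.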

[14] = CLD_ACTIN_48hr: CellzDirect (CLD) Gene Expression Assay for Baseline Control (Actin) at 48 hours (AID 2283702)
Procedure, shortened: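 Primary human hepatocytes (two donor preparations) dosed daily for two days with ToxCast chemicals at multiple concentrations versus 0.2% DMSO vehicle; harvested at 48 h. Actin mRNA measured as a background control by quantitative nuclease protection assay with chemiluminescence.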

[15] = read-out: organic anion transporter (SLCO1B1), SLCO1B1 (gene 10599); assay: CLD_SLCO1B1_24hr: CellzDirect (CLD) Gene Expression Assay for organic anion transporter (SLCO1B1) at 24 hours (AID 2283690)
Procedure, shortened: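 Primary human hepatocytes (two donor preparations) dosed daily for two days with chemicals at multiple concentrations, 0.2% DMSO vehicle. SLCO1B1 mRNA at 24 h measured by qNPA chemiluminescence; induction fitted relative to DMSO.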

[16] = read-out: Cytochrome P450 3A4 (Homo sapiens) (UniProt P08684); assay: CLD_CYP3A4_24hr: CellzDirect (CLD) Gene Expression Assay for xenobiotic metabolism (CYP3A4) at 24 hours (AID 2283689)
Procedure, shortened: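 Primary human hepatocytes from two donors dosed daily with fresh compound for two days, 0.2% DMSO vehicle. CYP3A4 mRNA at 24 hr by qNPA chemiluminescence; gain-of-signal fit versus DMSO, cytotoxicity flagged by morphology.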

[17] = read-out: Broad substrate specificity ATP-binding cassette transporter ABCG2 (Homo sapiens) (UniProt Q9UNQ0); assay: CLD_ABCG2_48hr: CellzDirect (CLD) Gene Expression Assay for ABC Transporter (ABCG2) at 48 hours (AID 2283704);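 for AC50: potency for induction of ABCG2 mRNA above the DMSO baseline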
Procedure, shortened: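 Primary human hepatocytes from two donors, dosed daily for 2 days, 0.2% DMSO vehicle, several concentrations. ABCG2 mRNA at 48 h by qNPA chemiluminescence, gain fitted versus DMSO; cytotoxicity flagged by morphology.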

[18] = read-out: xenobiotic metabolism (CYP1A1), CYP1A1 (gene 1543); assay: CLD_CYP1A1_48hr: CellzDirect (CLD) Gene Expression Assay for xenobiotic metabolism (CYP1A1) at 48 hours (AID 2283705)
Procedure, shortened: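 Primary human hepatocytes from two donors dosed daily for two days at multiple concentrations, 0.2% DMSO vehicle; CYP1A1 mRNA induction at 48 h by qNPA chemiluminescence. Cytotoxicity noted by phase-contrast morphology.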

[19] = read-out: Cytochrome P450 2C19 (Homo sapiens) (UniProt P33261); assay: CLD_CYP2C19_24hr: CellzDirect (CLD) Gene Expression Assay for xenobiotic metabolism (CYP2C19) at 24 hours (AID 2283687)
Procedure, shortened: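 Primary human hepatocytes (two donor preparations) dosed daily with fresh test chemical in 0.2% DMSO vehicle; CYP2C19 mRNA induction measured at 24 h by quantitative nuclease protection assay with chemiluminescence, fitted for gain of signal versus DMSO.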

Measured: AC50

CCc1cnc(C2=NC(C)(C(C)C)C(=O)N2)c(C(=O)O)c1 (stereo not given)
inactive: [3] | [4] | [8] | [9]
inconclusive: [1] 3.17 µM | [2] 3.97 µM | [5] 20 µM | [6] 20 µM | [7] 0.0568 µM

CCCCC(O)(Cn1cncn1)c1ccc(Cl)cc1Cl (stereo not given)
active: [11] 31.9 µM
inconclusive: [2] 20 µM | [3] 32.8 µM | [4] 3.97 µM | [10] 20 µM | [6] 16.2 µM | [12] 20 µM | [8] 20 µM | [13] 20 µM
inactive: [1] | [5]

CCOc1cc(Oc2ccc(C(F)(F)F)cc2Cl)ccc1[N+](=O)[O-]
inactive: [11] | [12]
inconclusive: [1] 20 µM | [2] 0.00359 µM | [3] 20 µM | [4] 20 µM | [10] 20 µM | [6] 20 µM | [14] 20 µM | [8] 7.07 µM

CCCCOC(=O)[C@@H](C)Oc1ccc(Oc2ccc(C#N)cc2F)cc1
inconclusive: [1] 20 µM | [2] 20 µM | [15] 20 µM | [8] 20 µM | [13] 0.564 µM
inactive: [3] | [11] | [6] | [12]

COP(=S)(OC)Oc1ccc(SC)c(C)c1
inconclusive: [1] 20 µM | [2] 20 µM | [15] 20 µM | [3] 20 µM | [4] 20 µM | [10] 9.77 µM | [5] 20 µM | [11] 8.35 µM | [6] 20 µM | [12] 31.6 µM | [14] 16.4 µM | [8] 20 µM | [9] 20 µM

CCOC(=O)C(C)OC(=O)c1cc(Oc2ccc(C(F)(F)F)cc2Cl)ccc1[N+](=O)[O-] (stereo not given)
active: [3] 0.31 µM
inactive: [1] | [12]
inconclusive: [2] 0.000915 µM | [15] 37.8 µM | [10] 7.39 µM | [11] 5.12 µM | [6] 20 µM | [14] 4.88 µM | [8] 6.16 µM | [13] 37.4 µM | [9] 4.08 µM

Clc1nc(Cl)nc(Nc2ccccc2Cl)n1
inconclusive: [1] 20 µM | [2] 0.0004 µM | [3] 20 µM
not listed: [4] | [5] | [7] | [10] | [13] | [19]
inactive: all other assays above

CN(C)c1nc(=O)n(C2CCCCC2)c(=O)n1C
inactive: [15] | [5] | [6] | [8]
inconclusive: [1] 0.000502 µM | [2] 0.000405 µM | [3] 0.00747 µM | [10] 20 µM | [11] 0.0983 µM | [7] 0.00995 µM | [12] 0.00856 µM | [17] 0.071 µM | [18] 20 µM | [13] 20 µM | [9] 20 µM

CCc1ccc(C(=O)NN(C(=O)c2cc(C)cc(C)c2)C(C)(C)C)cc1
inconclusive: [1] 20 µM | [2] 20 µM | [3] 3.74 µM | [4] 20 µM | [10] 3.97 µM | [12] 20 µM | [14] 20 µM | [17] 20 µM | [8] 2.71 µM | [9] 20 µM
active: [7] 2.18 µM
inactive: [18]

CCSC(=O)N1CCCCCC1
inconclusive: [1] 3.97 µM | [15] 0.000409 µM | [3] 3.36 µM | [4] 20 µM | [6] 3.56 µM | [8] 20 µM | [13] 1.9 µM
inactive: [5] | [14]

Oc1ccc(Cl)cc1Cc1ccccc1
inactive: [3] | [6] | [8] | [13]
inconclusive: [1] 20 µM | [11] 20 µM | [14] 0.00404 µM | [18] 0.0137 µM

O=C1C2CC=CCC2C(=O)N1SC(Cl)(Cl)Cl (stereo not given)
inactive: [19] | [2] | [15] | [4] | [10] | [7] | [18] | [9]
inconclusive: [5] 1.89 µM | [11] 20 µM | [14] 20 µM | [8] 20 µM

C#CCN1C(=O)COc2cc(F)c(N3C(=O)C4=C(CCCC4)C3=O)cc21
inactive: [3] | [12]
inconclusive: [19] 20 µM | [16] 20 µM | [15] 0.00254 µM | [14] 0.0811 µM | [8] 3.97 µM
